Results on one substance are retold here after article doi:10.1101/151316.

Sequences of proteins named here, by UniProt entry; tags and fusion partners are left off. A change or cut given only in a name is not applied to a line headed by its entry.
UniProt P0C050, whole entry, looked up, stated change not applied: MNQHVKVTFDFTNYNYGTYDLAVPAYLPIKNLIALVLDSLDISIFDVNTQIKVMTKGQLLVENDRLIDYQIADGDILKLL

These are yes or no findings as the source states them, for the method shown.

The experiment deals with EsaB (Staphylococcus aureus) (UniProt P0C050). Briefly: SEC. On the technique in general: Size exclusion chromatography separates by hydrodynamic size, large species first.

For the substance EsaB (from UniProt P0C050 1-80), the binding result is recorded as “no binding”.
